According to paper doi:10.1101/2022.04.06.487260:
These are yes or no findings as the source states them, for the method shown.

The chains behind the UniProt entries cited, without tags or fusion partners. Where a name states a change or a piece, a line headed by the entry shows the natural chain unless it says otherwise. A line that says so, or that is headed by a name, gives the form on record, which may keep a tag or linker.
His-tagged Talin F2F3 (206-405, C336S) (Q9Y490, form named): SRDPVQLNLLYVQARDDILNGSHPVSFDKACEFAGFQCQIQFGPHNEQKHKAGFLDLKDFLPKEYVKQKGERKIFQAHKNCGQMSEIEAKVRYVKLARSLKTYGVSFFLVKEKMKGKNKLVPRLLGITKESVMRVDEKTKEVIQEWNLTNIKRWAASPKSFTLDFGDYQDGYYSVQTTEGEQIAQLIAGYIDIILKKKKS

Molecular target: His-tagged Talin F2F3 (206-405, C336S) (UniProt Q9Y490)
Experiment: pull-down

- binding: no binding
B1: FAT domain of human FAK (892-1052) (domain or fragment, UniProt Q05397 892-1052)
chain: SSPADSYNEGVKLQPQEISPPPTANLDRSNDKVYENVTGLVKAVIEMSSKIQPAPPEEYVPMVKEVGLALRTLLATVDETIPLLPASTHREIEMAQKLLNSDLGELINKMKLAQQYVMTSLQQEYKKQMLTAAHALAVDAKNLLDVIDQARLKMLGQTRPH
